Source: patent US8637455B2 (Affinergy, LLC, priority 2007, dated 2014)

Experiment: general procedure: Fmoc solid-phase peptide synthesis; Fmoc-PAL-Peg-PS (~0.20 mmol/g); AA/TBTU/HOBt/NMM (1:1:1:2)
Conditions: whole synthesis, analytical reverse phase-HPLC, one disulfide bridge, sequence written open

## Myr-Ahx-SSCLIDIYGVCHNFDAY-(miniPEG)2-HKKNNPKKKNKTRGSSK
  final HPLC purity: >90%
